The record followed here is article PMC4027206, “Crystal structure of Saccharomyces cerevisiae mitochondrial GatFAB reveals a novel subunit assembly in tRNA-dependent amidotransferases” (Nucleic Acids Research, 2014).

No constants are given. Whether binding was seen depends on the method and setting. Some results given as binding are weak or reduced against the parent protein; the word gives no strength. Tags and fused reporters may be left off the sequences shown.

Assay [1] concerns the target T1, GatA subunit of Saccharomyces cerevisiae mitochondrial GatFAB (S. cerevisiae) (UniProt Q03557).
T1 sequence: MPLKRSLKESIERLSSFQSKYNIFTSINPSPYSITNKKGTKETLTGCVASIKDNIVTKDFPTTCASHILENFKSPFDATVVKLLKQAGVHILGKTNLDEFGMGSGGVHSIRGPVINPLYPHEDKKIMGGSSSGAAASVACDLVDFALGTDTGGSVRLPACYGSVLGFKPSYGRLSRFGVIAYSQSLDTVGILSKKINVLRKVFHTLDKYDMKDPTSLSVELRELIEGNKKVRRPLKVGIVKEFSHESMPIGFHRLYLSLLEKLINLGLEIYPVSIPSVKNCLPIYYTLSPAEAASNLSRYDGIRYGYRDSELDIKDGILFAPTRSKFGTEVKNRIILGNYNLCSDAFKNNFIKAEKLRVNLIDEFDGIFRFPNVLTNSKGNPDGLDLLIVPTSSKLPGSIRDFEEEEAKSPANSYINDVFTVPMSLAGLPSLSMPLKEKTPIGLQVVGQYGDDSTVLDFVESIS
The assay can be described thus: crystal structure; GatFABΔHY heterotrimer, free and Gln-bound (10 mM glutamine) forms; sitting drop vapor diffusion at 20°C; 50 mM sodium malonate, 200 mM Mg(NO3)2, 10–13% PEG3350; both purified.

The target of assay [2] is T2, GatB subunit of S. cerevisiae GatFAB lacking the helical and YqeY domains (GatBΔHY, residues 16–329) (S. cerevisiae) (UniProt P33893).
T2 sequence: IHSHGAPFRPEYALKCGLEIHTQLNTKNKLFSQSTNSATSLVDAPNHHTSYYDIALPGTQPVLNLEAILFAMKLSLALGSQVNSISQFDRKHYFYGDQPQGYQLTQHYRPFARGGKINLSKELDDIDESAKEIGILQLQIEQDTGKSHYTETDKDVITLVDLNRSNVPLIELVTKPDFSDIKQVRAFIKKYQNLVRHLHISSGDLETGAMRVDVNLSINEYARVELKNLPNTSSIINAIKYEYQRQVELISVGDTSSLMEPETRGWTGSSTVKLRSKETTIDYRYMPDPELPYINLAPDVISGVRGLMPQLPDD
The description is as above.

Assay [3] addresses T3, GatB subunit of S. cerevisiae GatFAB with both C-terminal domains (GatB 16–541), His-tagged (S. cerevisiae) (UniProt P33893).
T3 sequence: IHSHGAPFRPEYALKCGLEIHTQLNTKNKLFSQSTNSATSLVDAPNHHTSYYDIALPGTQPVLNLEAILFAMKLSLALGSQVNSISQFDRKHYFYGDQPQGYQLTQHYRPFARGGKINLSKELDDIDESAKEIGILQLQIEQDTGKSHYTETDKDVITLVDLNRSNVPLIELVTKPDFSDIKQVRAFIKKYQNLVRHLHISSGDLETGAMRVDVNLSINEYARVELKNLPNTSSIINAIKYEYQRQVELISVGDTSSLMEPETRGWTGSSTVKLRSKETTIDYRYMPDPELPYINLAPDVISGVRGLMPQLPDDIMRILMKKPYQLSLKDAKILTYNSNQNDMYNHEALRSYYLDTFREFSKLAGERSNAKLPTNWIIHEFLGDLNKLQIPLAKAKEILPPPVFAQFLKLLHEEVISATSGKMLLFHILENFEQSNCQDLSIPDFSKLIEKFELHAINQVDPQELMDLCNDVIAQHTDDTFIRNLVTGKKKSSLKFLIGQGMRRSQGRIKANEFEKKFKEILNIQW
The assay can be described thus: co-purification by the His-tag; GatF mutant, GatA and His-tagged GatB co-expressed in E. coli from the gatFAB operon; purified with MagneHis; Coomassie blue-stained protein gel.

B1: GatF subunit of S. cerevisiae GatFAB without the mitochondrial targeting sequence (GatF 24–183) (domain or fragment, UniProt P53260 24-183)
chain: FVSTGGAKIGKKFENMNQIRDYLSRPVWSVHEYLGINTKEEKLEPPSAEAVKKLLRLSGLPLEGADIKEIQMRLAKQLSFINKLHNIPVEGEKHTKEYDARLVQRNTKQLNYTKLLEGISHQKQDAELGEVSGSWKATGLAAESKNAYFVVKEGLLKNRK
B1: the binding entry in assay [1] and in assay [2] was “binds” throughout.

B2: GatF N-terminal deletion mutant GatF 37–183 (domain or fragment, UniProt P53260 37-183)
chain: ENMNQIRDYLSRPVWSVHEYLGINTKEEKLEPPSAEAVKKLLRLSGLPLEGADIKEIQMRLAKQLSFINKLHNIPVEGEKHTKEYDARLVQRNTKQLNYTKLLEGISHQKQDAELGEVSGSWKATGLAAESKNAYFVVKEGLLKNRK
On to B2, for which the binding entry in assay [3] is recorded as “binds”.

B3: GatA subunit of Saccharomyces cerevisiae mitochondrial GatFAB (enzyme, UniProt Q03557 1-464)
chain: MPLKRSLKESIERLSSFQSKYNIFTSINPSPYSITNKKGTKETLTGCVASIKDNIVTKDFPTTCASHILENFKSPFDATVVKLLKQAGVHILGKTNLDEFGMGSGGVHSIRGPVINPLYPHEDKKIMGGSSSGAAASVACDLVDFALGTDTGGSVRLPACYGSVLGFKPSYGRLSRFGVIAYSQSLDTVGILSKKINVLRKVFHTLDKYDMKDPTSLSVELRELIEGNKKVRRPLKVGIVKEFSHESMPIGFHRLYLSLLEKLINLGLEIYPVSIPSVKNCLPIYYTLSPAEAASNLSRYDGIRYGYRDSELDIKDGILFAPTRSKFGTEVKNRIILGNYNLCSDAFKNNFIKAEKLRVNLIDEFDGIFRFPNVLTNSKGNPDGLDLLIVPTSSKLPGSIRDFEEEEAKSPANSYINDVFTVPMSLAGLPSLSMPLKEKTPIGLQVVGQYGDDSTVLDFVESIS
As for B3, the binding result in assay [2] and in assay [3] was “binds” in each case.

B4: GatF N-terminal deletion mutant GatF 47–183 (domain or fragment, UniProt P53260 47-183)
chain: SRPVWSVHEYLGINTKEEKLEPPSAEAVKKLLRLSGLPLEGADIKEIQMRLAKQLSFINKLHNIPVEGEKHTKEYDARLVQRNTKQLNYTKLLEGISHQKQDAELGEVSGSWKATGLAAESKNAYFVVKEGLLKNRK
With B4, the binding result in assay [3] is recorded as “binds”.
